## Library screening results

The values are deposited in ChEMBL (CHEMBL3988442, “University of Dundee, Small-Polar-MMV Screening Library” (2021)).

Each number is a percent effect as filed.
The controls that fix the scale are not given in the record; negative values are as filed.
This is an unselected part of the compounds tested.
A dash means the value is not listed here; it may have been measured.

A: 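Whole-cell assay for inhibitors of Mycobacterium tuberculosis growth, labelled Cornell in the record; the read-out is not stated. The concentration is filed as 10 mM, unlikely as a test dose, so the dose is not known. The record gives no direction; compounds strong in two other growth screens of this library score well above the rest, so higher reads as stronger inhibition. About 53,000 compounds were tested under these conditions; 1.7% (about 900) showed 50% or more at least once.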
B: 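Assay on Mycobacterium tuberculosis, filed only as a heat shock assay from Cornell; the read-out is not stated. The concentration is filed as 10 mM, unlikely as a test dose, so the dose is not known. Higher reads as stronger inhibition (inferred: compounds with an IC50 in retests scored well above the rest). Of about 69,000 compounds tested this way, about 930 (1.4%) reached 50% or more in at least one test.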

| compound | A | B |
|---|---|---|
| `CN(C)CC(O)Cn1cc(NCc2ccc(Br)cc2)cn1` (stereo not drawn) | 11.61% | 0.6005% |
| `COC[C@]1(O)CCN(C(=O)c2ccc(CN(C)C)o2)CC1(C)C` | 10.73% | 10.17% |
| `Cc1ccc(C)c(C(O)Cn2cc(Cl)c(=O)[nH]c2=O)c1` (stereo not drawn) | - | -38.26% |
| `O=C1CCOCCN1Cc1ccc(Cl)c(F)c1` | -10.54% | -14.08% |
| `c1ccc(CN2CCC(NCCSc3ncn[nH]3)C2)cc1` (stereo not drawn) | -18.62% | -27.32% |
| `O=C1NCCCc2[nH]c(-c3nc(C4CCCCC4)no3)nc21` | 42.37% | -2.846% |
| `CCOc1ccccc1C(=O)N1CCCC(O)(CN(C)C)C1` (stereo not drawn) | - | 5.793% |
| `Cc1nn(C)c2cnn(CC(=O)NCCc3ccccc3)c12` | - | -16.72% |
| `CCN(CC)S(=O)(=O)c1ccc(C(=O)NC(C)(C)C)cc1` | -55.38% | -16.13% |
| `Cc1ccc(OCC2CCCN(c3cc(C(N)=O)ccn3)C2)cc1` (stereo not drawn) | - | -12.01% |
| `C[C@@H]1CN(C(=O)CSc2nncn2C)C[C@@]1(O)C1CC1` | -15.65% | 3.352% |
| `c1cnc(N2CCCC(c3cc4cccnc4[nH]3)C2)nc1` (stereo not drawn) | 5.872% | -1.799% |
| `COc1ccc(CN2CCC3(CC2)CN(c2ccccn2)CCO3)cc1.O=C(O)C(F)(F)F.O=C(O)C(F)(F)F` | 4.554% | 1.055% |
| `CCn1cc(CN2CCCC(CO)(CCc3ccccc3)C2)c(C)n1` (stereo not drawn) | -11.23% | -3.657% |
| `[H][C@@]12CCCCCN(C(=O)CC)[C@@]1([H])[C@H](c1cccc(F)c1)CN2C` | -24.01% | -3.173% |
| `COCC1CN(CC2CC2)Cc2ncn(CC3CC3)c21` (stereo not drawn) | - | -23.19% |
| `CCc1noc(CN(C)C(=O)c2ccnc(OC3CCC3)c2)n1` | 19.5% | -3.175% |
| `Cc1nccn1CC1CCCN1S(=O)(=O)Cc1ccc(F)cc1` (stereo not drawn) | - | -9.366% |
| `Cc1nc(CN2CCC(CNC(=O)C3(C#N)CCCC3)CC2)oc1C` | - | 0.3673% |
| `CC(C)N(CC(=O)Nc1cccc(C#N)c1)C1CC1` | - | -14.01% |
| `[H][C@@]12CCN(C(=O)c3cccnc3OC)C[C@@]1([H])O[C@H](c1ccncn1)C2` | 18.57% | -14.25% |
| `CC(C)c1nccn1Cc1cc(C(=O)NCC(C)n2ccnc2)n[nH]1` (stereo not drawn) | 31.42% | -21.82% |
| `O=C(CNC(Cn1cccn1)c1ccccc1)Nc1cnccn1` (stereo not drawn) | - | -20.43% |
| `COCCN(C)C[C@@H]1CN(C(=O)c2ccoc2)C[C@@H]1CO` | - | -3.044% |
| `O=C(c1cnc(-c2noc3cc(N4CCCC4)ccc23)s1)N1CCCC1` | -40.02% | -6.808% |
| `CCN(Cc1cccc2c1OCO2)C(=O)NCCOC` | - | -7.623% |
| `CCc1oc2ccc(NS(C)(=O)=O)cc2c1C(=O)OC` | 7.068% | -16.13% |
| `CCC(C(=O)NC1CCCCC1)n1ccc2ncccc2c1=O` (stereo not drawn) | -5.361% | 3.896% |
| `CC(C)(C)OC(=O)N1CC(=O)N(Cc2ccco2)CC(O)C1` (stereo not drawn) | 6.669% | 11.64% |
| `O=C(O)C(F)(F)F.c1c2c(nn1CC1CC1)C(CNC1CCOCC1)OCC2` (stereo not drawn) | -20.32% | 6.951% |

The last 2 entries again:

For CC(C)(C)OC(=O)N1CC(=O)N(Cc2ccco2)CC(O)C1 (stereo not drawn) the result was A: 6.669%; B: 11.64%.
For O=C(O)C(F)(F)F.c1c2c(nn1CC1CC1)C(CNC1CCOCC1)OCC2 (stereo not drawn) the result was A: -20.32%; B: 6.951%.